Measured values reported in patent publication US6491729B1.

Experiments:
[1] = tensile strength (load weight, displacement, stress, specific stress, strain at the maximum load point); conditions: dyed fabric of polyester/rayon
[2] = as above; conditions: undyed fabric of gray nylon goods

ClC(Cl)=C(Cl)Cl [perchloroethylene]
displacement ([1]; dry-cleaned five times): 57.82 mm
load weight ([1]; dry-cleaned five times): 55.11 kg
specific stress ([1]; dry-cleaned five times): 55.11 kg/L
strain ([1]; dry-cleaned five times): 28.91%
stress ([1]; dry-cleaned five times): 3.06 kg/mm^2
displacement ([1]; dry-cleaned one time): 53.34 mm
load weight ([1]; dry-cleaned one time): 45.57 kg
specific stress ([1]; dry-cleaned one time): 45.57 kg/L
strain ([1]; dry-cleaned one time): 26.67%
stress ([1]; dry-cleaned one time): 2.53 kg/mm^2
displacement ([1]; dry-cleaned two times): 57.02 mm
load weight ([1]; dry-cleaned two times): 47.57 kg
specific stress ([1]; dry-cleaned two times): 47.57 kg/L
strain ([1]; dry-cleaned two times): 28.5%
stress ([1]; dry-cleaned two times): 2.64 kg/mm^2
displacement ([2]; dry-cleaned five times): 63.23 mm
load weight ([2]; dry-cleaned five times): 32.28 kg
specific stress ([2]; dry-cleaned five times): 32.28 kg/L
strain ([2]; dry-cleaned five times): 31.62%
stress ([2]; dry-cleaned five times): 6.46 kg/mm^2
displacement ([2]; dry-cleaned one time): 65.96 mm
load weight ([2]; dry-cleaned one time): 32.81 kg
specific stress ([2]; dry-cleaned one time): 32.81 kg/L
strain ([2]; dry-cleaned one time): 32.98%
stress ([2]; dry-cleaned one time): 6.56 kg/mm^2
displacement ([2]; dry-cleaned two times): 59.26 mm
load weight ([2]; dry-cleaned two times): 28.29 kg
specific stress ([2]; dry-cleaned two times): 28.29 kg/L
strain ([2]; dry-cleaned two times): 29.63%
stress ([2]; dry-cleaned two times): 5.66 kg/mm^2
